Laboratory results: patent publication US9403866B2, “Compositions and methods for increasing telomerase activity” (Telomerase Activation Sciences, Inc., priority 2009, dated 2016)
At least one structure is not confirmed: it was looked up by name or label, or the drawing left a doubt.

Chains of the proteins cited; added tags and fusions are not shown. Lines headed by an entry give the natural chain unless they say otherwise; changes in a name come on top.
UniProt O14746: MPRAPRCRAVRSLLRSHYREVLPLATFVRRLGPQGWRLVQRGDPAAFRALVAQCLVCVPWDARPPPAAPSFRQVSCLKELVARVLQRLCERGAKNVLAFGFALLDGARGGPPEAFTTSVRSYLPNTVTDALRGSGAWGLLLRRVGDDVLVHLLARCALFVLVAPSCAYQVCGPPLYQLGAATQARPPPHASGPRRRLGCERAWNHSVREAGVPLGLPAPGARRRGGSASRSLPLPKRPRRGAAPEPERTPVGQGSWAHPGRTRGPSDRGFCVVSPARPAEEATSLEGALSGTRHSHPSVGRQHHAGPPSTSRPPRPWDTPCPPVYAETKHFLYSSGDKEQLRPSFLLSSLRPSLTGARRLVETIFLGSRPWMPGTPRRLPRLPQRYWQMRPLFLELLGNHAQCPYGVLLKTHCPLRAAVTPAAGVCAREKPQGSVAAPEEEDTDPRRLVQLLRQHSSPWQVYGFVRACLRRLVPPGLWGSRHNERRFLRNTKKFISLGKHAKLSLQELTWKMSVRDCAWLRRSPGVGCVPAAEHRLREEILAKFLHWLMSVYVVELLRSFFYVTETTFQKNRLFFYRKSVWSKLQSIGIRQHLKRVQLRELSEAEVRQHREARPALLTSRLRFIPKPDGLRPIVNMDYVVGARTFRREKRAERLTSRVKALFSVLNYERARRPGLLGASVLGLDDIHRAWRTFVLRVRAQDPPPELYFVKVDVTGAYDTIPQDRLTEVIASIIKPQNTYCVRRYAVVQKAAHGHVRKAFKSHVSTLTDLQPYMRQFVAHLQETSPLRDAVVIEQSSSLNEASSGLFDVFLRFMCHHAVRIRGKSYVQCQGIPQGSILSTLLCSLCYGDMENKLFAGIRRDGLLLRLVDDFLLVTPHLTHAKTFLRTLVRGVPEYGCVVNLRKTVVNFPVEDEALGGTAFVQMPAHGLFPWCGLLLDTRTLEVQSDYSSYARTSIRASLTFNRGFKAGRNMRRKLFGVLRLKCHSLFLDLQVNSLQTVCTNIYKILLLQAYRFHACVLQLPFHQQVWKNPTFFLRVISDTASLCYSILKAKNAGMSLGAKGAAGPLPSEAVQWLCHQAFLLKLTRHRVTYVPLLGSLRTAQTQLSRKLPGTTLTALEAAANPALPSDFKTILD

Legend:
telomerase [1] = biological target: T1, telomerase (Homo sapiens, UniProt O14746); test: Keratinocyte cell/TRAP assay (HEKneo-P cells); format: cell-based; parameters: host or cells: HEKneo-P (pooled neonatal human epidermal keratinocytes)
Text: Harley et al., U.S. Pat. […] Harley et al., U.S. Pat. […] Non-treatment control (NT) was also included. […]

telomerase [2] = biological target: T2, telomerase (Mus musculus, UniProt O70372); test: Telomerase activity (TRAP) in PBMC and whiskers of mice after one dose; format: in vivo; parameters: from tissue; host or cells: PBMC and whiskers of C57BL/6 mice
T2 sequence (O70372 1-1122): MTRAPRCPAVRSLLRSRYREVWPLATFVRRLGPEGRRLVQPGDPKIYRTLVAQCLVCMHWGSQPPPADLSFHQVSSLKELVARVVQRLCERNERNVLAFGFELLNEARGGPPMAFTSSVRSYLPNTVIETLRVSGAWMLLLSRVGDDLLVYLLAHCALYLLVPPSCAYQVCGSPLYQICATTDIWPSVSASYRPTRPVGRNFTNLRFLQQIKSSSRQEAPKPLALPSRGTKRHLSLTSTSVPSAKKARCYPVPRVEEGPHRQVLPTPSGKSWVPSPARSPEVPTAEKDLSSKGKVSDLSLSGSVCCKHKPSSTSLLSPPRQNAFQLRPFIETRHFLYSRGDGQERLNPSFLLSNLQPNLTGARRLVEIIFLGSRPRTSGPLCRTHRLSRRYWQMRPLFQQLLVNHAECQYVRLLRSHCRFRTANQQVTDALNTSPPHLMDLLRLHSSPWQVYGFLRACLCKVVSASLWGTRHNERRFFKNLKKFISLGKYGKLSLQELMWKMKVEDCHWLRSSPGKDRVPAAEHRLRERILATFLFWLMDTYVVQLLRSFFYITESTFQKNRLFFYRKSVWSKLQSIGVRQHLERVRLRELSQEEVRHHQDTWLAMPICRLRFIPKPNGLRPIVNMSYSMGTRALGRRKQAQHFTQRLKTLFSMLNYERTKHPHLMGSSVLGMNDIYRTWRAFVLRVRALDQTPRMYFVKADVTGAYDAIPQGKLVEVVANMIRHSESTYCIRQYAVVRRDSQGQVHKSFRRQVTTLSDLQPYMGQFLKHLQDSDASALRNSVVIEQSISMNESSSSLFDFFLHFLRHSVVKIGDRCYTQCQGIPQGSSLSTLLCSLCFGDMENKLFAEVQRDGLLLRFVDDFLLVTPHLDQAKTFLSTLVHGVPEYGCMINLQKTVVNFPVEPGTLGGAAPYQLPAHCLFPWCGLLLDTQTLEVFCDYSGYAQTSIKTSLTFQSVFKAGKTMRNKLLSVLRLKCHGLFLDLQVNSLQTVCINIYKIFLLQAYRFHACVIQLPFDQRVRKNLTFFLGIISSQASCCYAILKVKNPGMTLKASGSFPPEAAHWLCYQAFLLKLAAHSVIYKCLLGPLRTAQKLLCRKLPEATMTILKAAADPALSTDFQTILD

telomerase [3] = biological target: T1, telomerase; test: Telomerase activation in short-term liquid culture of human bone marrow-derived CD34+ hematopoietic progenitor cells (gel-TRAP); format: cell-based; details: huCD34+ cells, 3 days
Method: Human bone marrow-derived CD34+ hematopoietic progenitor cells were obtained from a healthy donor.
Human bone marrow-derived CD34+ hematopoietic progenitor cells were grown in Iscove's Modified Dulbecco's Medium (IMDM) (Invitrogen, CA)+10% fetal bovine serum (FBS) for 3 days in the presence of compound 4 (1 uM, 100 nM, 10 nM), vehicle (1% DMSO), or nothing. Telomerase activity increased by ˜60-70% in the 100 nM compound 4 sample relative to the vehicle control (as assessed by traditional gel-TRAP assay).

telomerase [4] = biological target: T1, telomerase; test: In vitro model of fibrosis: TGFβ and bleomycin treated SAECs, gel TRAP assay; format: cell-based; details: SAECs with bleomycin (10 ug/ml) and TGFβ (10 ng/ml)
telomerase [5] = biological target: T2, telomerase; test: Administration to BALB/c mice: telomerase activity (TRAP) in Matrigel plugs and bone marrow stem/progenitor cells; format: in vivo; parameters: from tissue; host or cells: host cells in subcutaneous Matrigel plugs; lineage-depleted bone marrow cells of BALB/c mice; details: 10 mg/kg/day PO (BID)
telomerase [6] = biological target: T2, telomerase; test: Administration to aging Tert (+/-) mice: telomerase activity (TRAP) in Matrigel plugs and bone marrow stem/progenitor cells; format: in vivo, Tert (+/-) mice on a C57BL/6 background; parameters: from tissue; host or cells: host cells in Matrigel plugs; lineage-depleted bone marrow cells of Tert (+/-) mice; details: 10 mg/kg/day PO (BID)
[7] = tested on: wild-type mouse lineage-depleted bone marrow cells; test: Colony formation assay of wild-type mouse lineage-depleted bone marrow cells; format: cell-based; details: 100 nM and 500 nM
Method: Mouse bone marrow-derived lineage-depleted cells (enriched for hematopoietic stem and progenitor cells but not a pure population) were obtained. Wild-type mouse lineage-depleted bone marrow cells from two separate mice were plated into a standard colony formation assay in the presence of compound 4 (100 nM and 500 nM), vehicle (0.1% DMSO), or nothing. After 12 days, hematopoietic colonies were enumerated (BFU-E, CFU-GM, and CFU-GEMM).

Q: Which results are given for CC(C)C(N)C(=O)OC1CCC23CC24CCC2(C)C(C5(C)CCC(C(C)(C)O)O5)C(O)CC2(C)C4CC(O)C3C1(C)C (stereo not drawn) [Compound 4, 2-(L)-Amino-3-methyl-butyric acid 6α,16β-dihydroxy-17-[5-(1-hydroxy-1-methyl-ethyl)-2-methyl-tetrahydro-furan-2-yl]-4,4,13,14-tetramethyl-tetradecahydro-cyclopropa[9,10]cyclopenta[a]phenanthren-3β-yl ester]?
A: Max fold increase of activity (telomerase [1]): 4.5 fold; Activity in in vitro HEK assay (telomerase [1]; 24 hr, 0.01 to 10 μM, vs vehicle control at peak of full dose curve): + (telomerase activation is 2 fold or more in comparison with vehicle control at the peak of the full dose curve.); telomerase activity in mice peripheral blood mononuclear cells (PBMC), TRAP assay (telomerase [2]; FIG. 1): increase of telomerase activity; telomerase activity in mice whiskers, TRAP assay (telomerase [2]; FIG. 2): increase of telomerase activity; Telomerase activity increase (Fold of Vehicle Control) (telomerase [3]; 10 nM): 1.4-fold; Telomerase activity increase (Fold of Vehicle Control) (telomerase [3]; 100 nM): 1.8-fold; Telomerase activity increase (Fold of Vehicle Control) (telomerase [3]; 1 uM): 1.3-fold; telomerase activity against effects of TGFβ and bleomycin (telomerase [4]): partially restored or protected telomerase activity; increase in telomerase activity in the Matrigel plug (telomerase [5]; Day 12, p<0.2, n=5/group): 1.9 fold; increase in telomerase activity in bone marrow stem and progenitor cells (telomerase [5]; p<0.1, n=3/group): 1.3 to 1.5 fold; increase in telomerase activity in the Matrigel plug (telomerase [6]; Day 12, repeat TRAP experiment with p<0.01): 2.6 fold; increase in telomerase activity in the Matrigel plug (telomerase [6]; Day 12, repeat TRAP experiment with p<0.02): 1.8 fold; increase in telomerase activity in bone marrow stem and progenitor cells (telomerase [6]; repeat TRAP experiment with p<0.03): 1.9 fold; increase in telomerase activity in bone marrow stem and progenitor cells (telomerase [6]; repeat TRAP experiment with p<0.18): 1.3 fold; total colony counts (in words) [7]: increase in total colony counts
